The text below walks through data of publication PMC7862700.

Sequences of proteins named here, by UniProt entry; tags and fusion partners are left off. A change or cut given only in a name is not applied to a line headed by its entry.
UniProt Q9Y603: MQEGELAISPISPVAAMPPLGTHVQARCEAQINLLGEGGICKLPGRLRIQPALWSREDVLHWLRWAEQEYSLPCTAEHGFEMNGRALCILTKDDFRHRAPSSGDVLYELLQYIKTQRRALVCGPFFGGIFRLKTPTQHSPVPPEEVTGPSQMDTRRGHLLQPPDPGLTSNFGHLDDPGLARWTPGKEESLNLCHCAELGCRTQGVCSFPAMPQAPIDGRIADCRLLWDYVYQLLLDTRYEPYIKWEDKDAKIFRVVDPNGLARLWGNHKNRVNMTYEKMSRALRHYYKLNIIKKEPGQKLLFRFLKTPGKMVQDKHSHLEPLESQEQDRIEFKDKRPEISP
UniProt P41212: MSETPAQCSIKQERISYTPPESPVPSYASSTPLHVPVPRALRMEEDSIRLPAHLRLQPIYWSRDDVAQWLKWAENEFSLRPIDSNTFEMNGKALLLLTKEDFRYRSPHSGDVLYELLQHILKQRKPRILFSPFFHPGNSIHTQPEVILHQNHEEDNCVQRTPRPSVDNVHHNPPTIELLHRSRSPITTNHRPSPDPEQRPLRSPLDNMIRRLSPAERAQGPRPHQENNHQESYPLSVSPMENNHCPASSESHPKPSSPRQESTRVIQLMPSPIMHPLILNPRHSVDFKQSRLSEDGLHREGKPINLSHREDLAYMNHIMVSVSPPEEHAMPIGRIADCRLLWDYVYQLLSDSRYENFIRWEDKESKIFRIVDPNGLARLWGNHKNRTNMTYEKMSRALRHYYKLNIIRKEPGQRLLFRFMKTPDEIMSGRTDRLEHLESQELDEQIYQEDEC

The entries are a selection whose mix differs from that of the whole data set. At the low end of the ranking, values are background and their order means little.

Holding throughout (test): DAPPL (digital affinity profiling via proximity ligation, sequencing)
What all share (conditions): 10 mM Tris-HCl pH 7.5, 50 mM NaCl, 1 mM DTT, 4% glycerol, room temperature, 30 min; GST-TFs on glutathione beads, 16-mer random dsDNA library, 0.1% …; high values mean tight binding; double strand, one strand shown; scale: fold enrichment (6-mer frequency, TF over GST control)

One experiment has as its target T1, ELF3 (UniProt P78545).
T1 sequence: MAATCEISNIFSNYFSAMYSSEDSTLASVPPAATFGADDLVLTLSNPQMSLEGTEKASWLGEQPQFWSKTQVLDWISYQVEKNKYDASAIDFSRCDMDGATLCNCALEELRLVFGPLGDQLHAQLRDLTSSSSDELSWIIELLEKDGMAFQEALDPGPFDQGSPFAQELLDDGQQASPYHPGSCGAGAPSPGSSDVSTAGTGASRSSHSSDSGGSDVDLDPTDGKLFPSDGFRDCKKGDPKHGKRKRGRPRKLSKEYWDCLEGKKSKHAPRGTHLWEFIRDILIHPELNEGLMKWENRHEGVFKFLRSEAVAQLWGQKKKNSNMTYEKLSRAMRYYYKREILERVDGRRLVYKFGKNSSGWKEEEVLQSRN

The target in a further experiment is ETV7 (UniProt Q9Y603).
The target in the next experiment is ETV6 (UniProt P41212).

As to GCTCGG, the binding signal with ELF3 turned out to be 0.772; with ETV7 it was 0.755; with ETV6 it was 0.796.
The matching figures for GGGACC: 0.639, 0.646 and 0.614.
The matching figures for AGTGAT: 0.82, 0.827 and 0.963.
For GAGTGC, the binding signal with ELF3 came to 0.528; in the experiment with ETV7, 0.698; with ETV6, 0.68.
For the sequence CGTTAG, the binding signal in the experiment with ELF3 was 0.805; in the experiment with ETV7 it was 0.851; with ETV6, 0.759.
In the same order, the values of AGGGGT are 0.846, 0.921 and 0.817.
In the same order, the values of GGGAAT are 0.838, 0.846 and 0.786.
The matching figures for AGTTGA: 0.775, 0.727 and 0.878.
GTCGCA: the binding signal in the experiment with ELF3 turned out to be 0.744; with ETV7 it was 0.673; with ETV6, 0.788.
The matching figures for GTGACA: 0.847, 0.744 and 0.867.
The matching figures for CAGTCT: 0.662, 0.79 and 0.638.
In the case of GCGAGA, the binding signal came out at 0.547 with ELF3, 0.556 in the experiment with ETV7 and 0.47 with ETV6.
The matching figures for GATCCG: 0.887, 0.934 and 0.925.
The matching figures for TGTGTA: 0.906, 0.887 and 0.802.
The matching figures for AGAGTA: 0.779, 0.839 and 0.754.
For the sequence CCAGAC, the binding signal with ELF3 turned out to be 0.557; with ETV7, 0.608; with ETV6 it was 0.634.
In the same order, the values of GTCGGT are 0.268, 0.351 and 0.283.
The matching figures for GTTGTG: 0.741, 0.948 and 0.951.
The matching figures for CAGAGT: 0.709, 0.764 and 0.635.
With GGAGCG, the figures for the binding signal with ELF3, with ETV7 and with ETV6 were 0.338, 0.402 and 0.429, respectively.
In the same order, the values of GTAAAG are 0.894, 0.905 and 0.898.
The matching figures for TTCGGA: 0.794, 0.722 and 0.738.
Turning to GGTGAG, the figures for the binding signal with ELF3, with ETV7 and in the experiment with ETV6 were 0.367, 0.383 and 0.318, respectively.
In the same order, the values of ACGCAG are 0.817, 0.811 and 0.801.
The matching figures for CGGTGA: 0.477, 0.468 and 0.474.
In the same order, the values of GGAGTG are 0.348, 0.499 and 0.388.
As to TCGGCG, the binding signal worked out at 0.489 with ELF3, 0.573 with ETV7 and 0.491 with ETV6.
In the same order, the values of GGGTCC are 0.683, 0.885 and 0.779.
The matching figures for GGGGTC: 0.695, 0.712 and 0.637.
On to AGAGAC, for which the binding signal in the experiment with ELF3 turned out to be 0.472; with ETV7, 0.558; in the experiment with ETV6 it was 0.505.
In the same order, the values of CGGGCA are 0.657, 0.757 and 0.725.
Take CAGTGA: the binding signal with ELF3 came out at 0.336; with ETV7, 0.389; with ETV6, 0.351.
On to AGCCGG, for which the results for the binding signal in the experiment with ELF3, with ETV7 and with ETV6 were 0.53, 0.678 and 0.624, respectively.
Take GACAGT: the binding signal with ELF3 worked out at 0.432; with ETV7 it was 0.502; with ETV6, 0.43.
The matching figures for GGGGTT: 0.796, 0.927 and 0.801.
The matching figures for GACGGC: 0.674, 0.746 and 0.75.
The matching figures for GGCAAC: 0.94, 0.961 and 0.942.
Turning to GGAGGC, the binding signal in the experiment with ELF3 amounted to 0.245; with ETV7, 0.307; with ETV6 it was 0.244.
The matching figures for GATCGC: 0.775, 0.855 and 0.849.
The matching figures for GGAAGG: 0.947, 0.815 and 0.86.
Regarding GTGAGT, the binding signal with ELF3 worked out at 0.123; with ETV7 it was 0.17; in the experiment with ETV6, 0.142.
In the same order, the values of GCAAGA are 0.875, 0.851 and 0.731.
The matching figures for ATAGAG: 0.889, 0.865 and 0.918.
In the same order, the values of AAGAGT are 0.769, 0.944 and 0.955.
For the sequence GTCAGA, the results for the binding signal with ELF3, with ETV7 and with ETV6 were 0.662, 0.761 and 0.664, respectively.
With AGGGTG, the binding signal with ELF3 was 0.77; with ETV7, 0.827; with ETV6 it was 0.752.
In the same order, the values of GAGGTT are 0.784, 0.81 and 0.693.
In the case of AACAGT, the results for the binding signal with ELF3, in the experiment with ETV7 and with ETV6 were 0.773, 0.741 and 0.659, respectively.
For the sequence CCCGAG, the binding signal turned out to be 0.949 with ELF3, 0.794 with ETV7 and 0.792 with ETV6.
In the same order, the values of TGTGAG are 0.399, 0.372 and 0.303.
Consider ATCGAG, for which the binding signal worked out at 0.888 with ELF3, 0.844 with ETV7 and 0.892 in the experiment with ETV6.
Turning to GGGCCG, the binding signal was found to be 0.52 with ELF3, 0.617 with ETV7 and 0.646 in the experiment with ETV6.
The matching figures for GCGGTA: 0.688, 0.742 and 0.754.
In the same order, the values of TGTCGA are 0.829, 0.91 and 0.8.
The matching figures for AAGGTG: 0.967, 0.907 and 0.891.
For the sequence GAGTTA, the binding signal in the experiment with ELF3 worked out at 0.66; with ETV7, 0.655; with ETV6, 0.588.
CAGGAC: the binding signal came out at 0.658 with ELF3, 0.762 with ETV7 and 0.806 in the experiment with ETV6.
As for ACGGGC, the results for the binding signal in the experiment with ELF3, with ETV7 and in the experiment with ETV6 were 0.795, 0.865 and 0.837, respectively.
The matching figures for GGGGCC: 0.512, 0.547 and 0.579.
In the same order, the values of TGGGTC are 0.679, 0.766 and 0.654.
